Reference: article PMC5833712
Results are given in words; binding and its absence hold for the method and conditions named. In cells and extracts the contact can be indirect. Some binding calls cover weakened binding; strength is not graded here.

Amino acid sequences for entries named in this document (tags omitted).
UniProt Q09472: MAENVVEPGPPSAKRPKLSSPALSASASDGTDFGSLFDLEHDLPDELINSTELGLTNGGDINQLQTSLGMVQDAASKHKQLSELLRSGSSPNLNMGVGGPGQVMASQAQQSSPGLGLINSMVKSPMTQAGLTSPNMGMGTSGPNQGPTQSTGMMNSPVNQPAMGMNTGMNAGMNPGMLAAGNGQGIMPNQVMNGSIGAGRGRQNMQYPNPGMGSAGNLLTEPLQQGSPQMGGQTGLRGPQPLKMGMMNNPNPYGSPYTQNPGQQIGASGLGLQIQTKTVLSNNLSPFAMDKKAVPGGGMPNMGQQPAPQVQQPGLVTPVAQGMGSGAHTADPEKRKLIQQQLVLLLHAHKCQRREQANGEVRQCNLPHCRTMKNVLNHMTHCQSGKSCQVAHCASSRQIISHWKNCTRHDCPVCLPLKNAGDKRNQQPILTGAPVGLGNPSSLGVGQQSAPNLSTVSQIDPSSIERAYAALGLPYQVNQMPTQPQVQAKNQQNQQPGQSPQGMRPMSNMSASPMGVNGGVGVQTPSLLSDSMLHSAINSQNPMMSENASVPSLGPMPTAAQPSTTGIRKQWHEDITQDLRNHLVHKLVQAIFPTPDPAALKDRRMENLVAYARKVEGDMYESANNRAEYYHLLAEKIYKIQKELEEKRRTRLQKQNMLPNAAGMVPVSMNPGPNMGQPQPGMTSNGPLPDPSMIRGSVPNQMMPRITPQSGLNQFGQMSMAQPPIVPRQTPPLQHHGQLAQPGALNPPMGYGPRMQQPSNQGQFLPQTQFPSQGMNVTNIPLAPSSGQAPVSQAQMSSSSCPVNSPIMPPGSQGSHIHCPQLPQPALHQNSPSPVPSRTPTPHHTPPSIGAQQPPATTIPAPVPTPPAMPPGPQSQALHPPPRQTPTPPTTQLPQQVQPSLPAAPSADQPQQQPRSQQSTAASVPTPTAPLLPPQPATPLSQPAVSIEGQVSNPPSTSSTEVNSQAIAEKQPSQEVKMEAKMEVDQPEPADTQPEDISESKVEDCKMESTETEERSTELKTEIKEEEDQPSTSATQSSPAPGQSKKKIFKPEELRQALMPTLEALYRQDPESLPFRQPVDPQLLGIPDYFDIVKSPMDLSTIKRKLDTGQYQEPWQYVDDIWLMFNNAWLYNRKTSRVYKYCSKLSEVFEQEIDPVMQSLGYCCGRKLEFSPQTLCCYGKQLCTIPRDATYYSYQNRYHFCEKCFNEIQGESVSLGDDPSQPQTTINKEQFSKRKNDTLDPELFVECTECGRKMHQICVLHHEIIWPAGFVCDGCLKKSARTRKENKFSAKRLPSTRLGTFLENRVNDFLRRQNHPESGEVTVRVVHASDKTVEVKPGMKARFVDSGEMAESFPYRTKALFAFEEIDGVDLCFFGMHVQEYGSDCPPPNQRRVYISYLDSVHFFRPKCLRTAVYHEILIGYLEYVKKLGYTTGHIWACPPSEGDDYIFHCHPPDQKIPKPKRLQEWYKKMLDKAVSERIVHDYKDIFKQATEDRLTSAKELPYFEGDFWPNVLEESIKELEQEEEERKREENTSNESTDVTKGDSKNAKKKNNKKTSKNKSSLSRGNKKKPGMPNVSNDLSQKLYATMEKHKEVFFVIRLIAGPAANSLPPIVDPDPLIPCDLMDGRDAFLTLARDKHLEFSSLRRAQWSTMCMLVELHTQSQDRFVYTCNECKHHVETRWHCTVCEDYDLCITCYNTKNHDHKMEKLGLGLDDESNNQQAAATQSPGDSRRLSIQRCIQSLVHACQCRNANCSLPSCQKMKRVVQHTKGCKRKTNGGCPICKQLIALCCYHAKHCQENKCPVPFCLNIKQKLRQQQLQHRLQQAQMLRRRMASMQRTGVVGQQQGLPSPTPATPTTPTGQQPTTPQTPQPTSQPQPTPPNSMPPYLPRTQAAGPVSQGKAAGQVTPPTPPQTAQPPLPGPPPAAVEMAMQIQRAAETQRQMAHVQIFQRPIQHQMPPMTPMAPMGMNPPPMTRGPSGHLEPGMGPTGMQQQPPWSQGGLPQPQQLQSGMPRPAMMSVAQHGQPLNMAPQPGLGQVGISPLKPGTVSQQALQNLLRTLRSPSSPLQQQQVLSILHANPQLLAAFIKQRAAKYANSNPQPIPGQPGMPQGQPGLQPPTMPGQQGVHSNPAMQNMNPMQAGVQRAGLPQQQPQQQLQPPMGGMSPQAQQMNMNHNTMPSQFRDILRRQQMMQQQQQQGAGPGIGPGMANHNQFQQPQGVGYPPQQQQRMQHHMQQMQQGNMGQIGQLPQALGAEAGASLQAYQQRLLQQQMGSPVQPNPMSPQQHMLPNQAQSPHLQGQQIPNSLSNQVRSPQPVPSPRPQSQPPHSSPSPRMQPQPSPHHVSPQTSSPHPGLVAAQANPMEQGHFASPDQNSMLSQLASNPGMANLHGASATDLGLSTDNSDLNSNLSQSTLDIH
UniProt Q92731: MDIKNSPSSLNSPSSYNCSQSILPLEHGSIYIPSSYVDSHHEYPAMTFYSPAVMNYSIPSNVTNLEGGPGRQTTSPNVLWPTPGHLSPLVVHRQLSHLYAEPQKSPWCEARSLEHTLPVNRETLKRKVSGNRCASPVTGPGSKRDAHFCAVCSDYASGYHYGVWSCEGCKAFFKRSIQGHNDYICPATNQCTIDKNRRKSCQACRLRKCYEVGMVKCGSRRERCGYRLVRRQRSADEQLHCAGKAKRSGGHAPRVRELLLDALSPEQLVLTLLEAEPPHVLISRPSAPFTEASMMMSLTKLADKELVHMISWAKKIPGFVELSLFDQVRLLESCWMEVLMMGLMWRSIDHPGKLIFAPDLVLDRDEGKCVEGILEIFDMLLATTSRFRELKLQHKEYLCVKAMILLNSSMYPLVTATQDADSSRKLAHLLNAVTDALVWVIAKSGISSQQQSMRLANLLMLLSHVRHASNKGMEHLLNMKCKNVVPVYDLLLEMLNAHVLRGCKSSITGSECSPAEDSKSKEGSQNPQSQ
UniProt P03372: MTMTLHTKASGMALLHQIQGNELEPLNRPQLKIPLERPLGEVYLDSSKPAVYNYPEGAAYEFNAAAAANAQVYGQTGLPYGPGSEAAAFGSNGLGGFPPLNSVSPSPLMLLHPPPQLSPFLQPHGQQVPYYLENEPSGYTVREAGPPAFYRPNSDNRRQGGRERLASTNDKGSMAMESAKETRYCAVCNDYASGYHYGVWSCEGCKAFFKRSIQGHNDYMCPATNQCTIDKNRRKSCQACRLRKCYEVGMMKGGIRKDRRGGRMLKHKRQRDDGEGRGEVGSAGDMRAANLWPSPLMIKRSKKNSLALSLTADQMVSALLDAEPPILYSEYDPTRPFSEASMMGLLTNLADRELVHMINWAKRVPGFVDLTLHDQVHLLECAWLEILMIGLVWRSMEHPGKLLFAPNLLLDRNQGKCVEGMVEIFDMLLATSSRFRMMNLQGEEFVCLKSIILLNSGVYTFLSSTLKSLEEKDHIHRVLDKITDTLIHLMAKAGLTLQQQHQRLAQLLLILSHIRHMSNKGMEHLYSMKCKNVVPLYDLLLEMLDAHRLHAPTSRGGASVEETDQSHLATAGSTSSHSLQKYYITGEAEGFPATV

How the values were obtained:
[1] = biological target: p300 (human (endogenous in A2780cis)) (UniProt Q09472); experiment: co-IP; p300 immunoprecipitated from lysates of A2780cis cells treated or not with 10 nM KB9520 for 1 h; blots for p300, SIRT1, ERβ
[2] = biological target: Estrogen receptor beta (ERβ) (human (endogenous in A2780cis)) (UniProt Q92731); experiment: condition: only after knock-down of KDM6B (siRNA, 48 h); co-IP; ERβ immunoprecipitated from lysates of A2780cis cells transfected 48 h with KDM6B-specific siRNA, treated or not with 10 nM KB9520 for 2 h; blots for AcLys, ERβ, p300
[3] = biological target: Estrogen receptor alpha (ERα), wild type (UniProt P03372); experiment: co-IP; p300:ERα association with and without KB9520 (Fig. S5); which protein was precipitated was not shown
[4] = biological target: Estrogen receptor beta (ERβ) (human (endogenous in A2780cis)) (UniProt Q92731); experiment: co-IP; ERβ immunoprecipitated (antibody, protein A-Sepharose, 1 h, 4 °C) from 1% NP-40 lysates (2 mg protein) of A2780cis cells treated or not with 10 nM KB9520 for 2 h; blots for AcLys, ERβ, p300; also cells with non-specific siRNA, SIRT1 siRNA or the SIRT1 inhibitor EX527

| binding [1] | binding [2] | binding [3] | binding [4] | Substance |
| --- | --- | --- | --- | --- |
| binds | – | – | – | Estrogen receptor beta (ERβ) (from UniProt Q92731 1-530) |
| – | no binding | binds | binds | p300 (from UniProt Q09472 1-2414) |
